Laboratory results from patent publication US20250042948 (published 2025).

Assay: general procedure: solution-phase peptide synthesis; PyOxim/2,4,6 collidine; PyOxim/NMM; TOTU/NMM; Oxyma-EDC*HCl/NMM
[1] = late stage modification step, HPLC

## Fmoc-Ala-Cys[Ψ(Dmp,H)pro]-Thr(tBu)-Gly-Cys[Ψ(Dmp,H)pro]-Tyr(tBu)-OtBu
Coupling step
  step yield: 93%
Coupling step, HPLC
  crude HPLC purity: 91.9%

## Fmoc-Asn(Trt)-Pro-Ala-Cys[Ψ(Dmp,H)pro]-Thr(tBu)-Gly-Cys[Ψ(Dmp,H)pro]-Tyr(tBu)-OtBu
Coupling step
  step yield: 98%
Coupling step, HPLC
  crude HPLC purity: 87.3%

## Fmoc-Cys(SO3Na)-Cys(SO3Na)-Glu(tBu)-Tyr(tBu)-Cys(SO3Na)-Cys(Trt)-Asn(Trt)-Pro-Ala-Cys[Ψ(Dmp,H)pro]-Thr(tBu)-Gly-Cys[Ψ(Dmp,H)pro]-Tyr(tBu)-OtBu
Coupling step, HPLC
  crude HPLC purity: 66.7%

## Fmoc-Cys(SO3Na)-Cys(SO3Na)-Glu(tBu)-Tyr(tBu)-OH
Coupling step
  step yield: 65%
Coupling step, HPLC
  crude HPLC purity: 94.3%

## Fmoc-Cys(Trt)-Asn(Trt)-Pro-Ala-Cys[Ψ(Dmp,H)pro]-Thr(tBu)-Gly-Cys[Ψ(Dmp,H)pro]-Tyr(tBu)-OtBu
Coupling step
  step yield: 95%
Coupling step, HPLC
  crude HPLC purity: 84.3%

## Fmoc-Thr(tBu)-Gly-Cys[Ψ(Dmp,H)pro]-Tyr(tBu)-OtBu
Coupling step
  step yield: 87%
Coupling step, HPLC
  crude HPLC purity: 93.9%

## H-Ala-Cys[Ψ(Dmp,H)pro]-Thr(tBu)-Gly-Cys[Ψ(Dmp,H)pro]-Tyr(tBu)-OtBu
Late stage modification step
  step yield: 91%
[1]
  crude HPLC purity: 90.3%

## H-Asn(Trt)-Pro-Ala-Cys[Ψ(Dmp,H)pro]-Thr(tBu)-Gly-Cys[Ψ(Dmp,H)pro]-Tyr(tBu)-OtBu
Late stage modification step
  step yield: 89%
[1]
  crude HPLC purity: 89.0%

## H-Cys(SO3H)-Cys(SO3H)-Glu-Tyr-Cys(SO3H)-Cys-Asn-Pro-Ala-Cys-Thr-Gly-Cys-Tyr-OH TFA salt
Late stage modification step, HPLC, TFA salt
  crude HPLC purity: 57.9%
Late stage modification step, TFA salt
  step yield: 92%

## H-Cys(SO3Na)-Cys(SO3Na)-Glu(tBu)-Tyr(tBu)-Cys(SO3Na)-Cys(Trt)-Asn(Trt)-Pro-Ala-Cys[Ψ(Dmp,H)pro]-Thr(tBu)-Gly-Cys[Ψ(Dmp,H)pro]-Tyr(tBu)-OtBu
Late stage modification step
  step yield: 89%
[1]
  crude HPLC purity: 61.7%

## H-Cys(SO3Na)-Cys(Trt)-Asn(Trt)-Pro-Ala-Cys[Ψ(Dmp,H)pro]-Thr(tBu)-Gly-Cys[Ψ(Dmp,H)pro]-Tyr(tBu)-OtBu
Coupling step
  step yield: 83%
Coupling step, HPLC
  crude HPLC purity: 82.9%

## Linaclotide
Oxidative folding step, HPLC
  crude HPLC purity: 53.8%
Oxidative folding step, cyclization yield
  oxidative folding yield: 72%
Purification step, HPLC
  final HPLC purity: 99.97%
Purification step, Ion-Pairing Chromatography, run 1
  final HPLC purity: 99.94%
Purification step, Ion-Pairing Chromatography, run 2
  final HPLC purity: 99.91%
Purification step, Isolation Yield, run 1
  step yield: 98%
Purification step, Isolation Yield, run 2
  step yield: 91%
Purification step, Yield (3 steps)
  step yield: 55%
